From paper PMC12368267 come the findings set out here.

By UniProt entry, the sequences of proteins in these tests, tags left out. Where a name states a change or a piece, a line headed by the entry shows the natural chain unless it says otherwise.
UniProt P16455: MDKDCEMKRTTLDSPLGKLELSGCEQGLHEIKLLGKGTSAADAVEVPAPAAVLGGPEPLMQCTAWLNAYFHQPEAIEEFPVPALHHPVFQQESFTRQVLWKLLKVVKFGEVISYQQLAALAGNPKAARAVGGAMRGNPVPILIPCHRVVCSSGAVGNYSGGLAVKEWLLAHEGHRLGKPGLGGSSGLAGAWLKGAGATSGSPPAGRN
UniProt Q93009: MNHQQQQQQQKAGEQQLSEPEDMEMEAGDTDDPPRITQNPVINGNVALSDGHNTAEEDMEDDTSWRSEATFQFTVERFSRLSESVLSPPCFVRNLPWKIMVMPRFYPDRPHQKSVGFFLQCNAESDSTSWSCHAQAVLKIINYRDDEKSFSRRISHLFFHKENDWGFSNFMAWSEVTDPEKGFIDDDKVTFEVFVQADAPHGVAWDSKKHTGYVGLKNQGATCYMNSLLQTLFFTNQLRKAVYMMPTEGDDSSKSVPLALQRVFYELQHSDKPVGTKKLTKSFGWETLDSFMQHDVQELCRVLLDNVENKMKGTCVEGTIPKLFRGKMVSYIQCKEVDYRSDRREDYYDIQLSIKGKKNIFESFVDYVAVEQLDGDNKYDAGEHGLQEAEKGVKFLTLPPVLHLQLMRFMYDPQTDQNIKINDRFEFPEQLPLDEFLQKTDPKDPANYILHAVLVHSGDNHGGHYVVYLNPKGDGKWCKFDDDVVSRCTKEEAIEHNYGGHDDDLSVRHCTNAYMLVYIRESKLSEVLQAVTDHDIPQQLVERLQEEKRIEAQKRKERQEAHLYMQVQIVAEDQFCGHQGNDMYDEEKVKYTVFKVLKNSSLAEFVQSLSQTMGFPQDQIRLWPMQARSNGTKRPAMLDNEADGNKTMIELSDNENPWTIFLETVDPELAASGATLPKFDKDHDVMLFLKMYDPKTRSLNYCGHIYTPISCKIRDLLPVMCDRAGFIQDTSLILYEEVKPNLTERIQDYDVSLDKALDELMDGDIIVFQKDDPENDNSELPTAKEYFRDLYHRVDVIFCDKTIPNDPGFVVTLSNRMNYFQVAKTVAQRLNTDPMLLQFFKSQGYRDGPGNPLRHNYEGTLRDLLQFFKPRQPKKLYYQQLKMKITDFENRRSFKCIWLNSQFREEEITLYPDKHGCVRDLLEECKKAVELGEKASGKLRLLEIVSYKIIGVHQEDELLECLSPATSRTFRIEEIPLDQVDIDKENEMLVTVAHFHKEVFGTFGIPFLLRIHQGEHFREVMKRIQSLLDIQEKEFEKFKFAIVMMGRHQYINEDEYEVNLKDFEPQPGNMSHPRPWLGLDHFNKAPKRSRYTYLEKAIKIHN

The target of this experiment is Flag-tagged MGMT (O6-methylguanine-DNA-methyltransferase), expressed in T98G cells (UniProt P16455). Description: affinity purification with mass spectrometry; T98G cells stably expressing Flag-MGMT lysed; anti-Flag M2 affinity beads overnight at 4 °C; five washes; elution with Flag peptides; LC-MS/MS.

These are yes or no findings as the source states them, for the method shown. Binding seen in cells or lysates may run through a third protein. Here binding means that the protein was enriched with, or labelled near, the bait; the list need not be complete.

“ubiquitin-specific protease 7 (USP7), endogenous in T98G cells (from UniProt Q93009 1-1102) (enzyme)”: the binding entry is “binds”.

B1: USP31, endogenous in T98G cells (enzyme, UniProt Q70CQ4 1-1352)
chain: MSKVTAPGSGPPAAASGKEKRSFSKRLFRSGRAGGGGAGGPGASGPAAPSSPSSPSSARSVGSFMSRVLKTLSTLSHLSSEGAAPDRGGLRSCFPPGPAAAPTPPPCPPPPASPAPPACAAEPVPGVAGLRNHGNTCFMNATLQCLSNTELFAEYLALGQYRAGRPEPSPDPEQPAGRGAQGQGEVTEQLAHLVRALWTLEYTPQHSRDFKTIVSKNALQYRGNSQHDAQEFLLWLLDRVHEDLNHSVKQSGQPPLKPPSETDMMPEGPSFPVCSTFVQELFQAQYRSSLTCPHCQKQSNTFDPFLCISLPIPLPHTRPLYVTVVYQGKCSHCMRIGVAVPLSGTVARLREAVSMETKIPTDQIVLTEMYYDGFHRSFCDTDDLETVHESDCIFAFETPEIFRPEGILSQRGIHLNNNLNHLKFGLDYHRLSSPTQTAAKQGKMDSPTSRAGSDKIVLLVCNRACTGQQGKRFGLPFVLHLEKTIAWDLLQKEILEKMKYFLRPTVCIQVCPFSLRVVSVVGITYLLPQEEQPLCHPIVERALKSCGPGGTAHVKLVVEWDKETRDFLFVNTEDEYIPDAESVRLQRERHHQPQTCTLSQCFQLYTKEERLAPDDAWRCPHCKQLQQGSITLSLWTLPDVLIIHLKRFRQEGDRRMKLQNMVKFPLTGLDMTPHVVKRSQSSWSLPSHWSPWRRPYGLGRDPEDYIYDLYAVCNHHGTMQGGHYTAYCKNSVDGLWYCFDDSDVQQLSEDEVCTQTAYILFYQRRTAIPSWSANSSVAGSTSSSLCEHWVSRLPGSKPASVTSAASSRRTSLASLSESVEMTGERSEDDGGFSTRPFVRSVQRQSLSSRSSVTSPLAVNENCMRPSWSLSAKLQMRSNSPSRFSGDSPIHSSASTLEKIGEAADDKVSISCFGSLRNLSSSYQEPSDSHSRREHKAVGRAPLAVMEGVFKDESDTRRLNSSVVDTQSKHSAQGDRLPPLSGPFDNNNQIAYVDQSDSVDSSPVKEVKAPSHPGSLAKKPESTTKRSPSSKGTSEPEKSLRKGRPALASQESSLSSTSPSSPLPVKVSLKPSRSRSKADSSSRGSGRHSSPAPAQPKKESSPKSQDSVSSPSPQKQKSASALTYTASSTSAKKASGPATRSPFPPGKSRTSDHSLSREGSRQSLGSDRASATSTSKPNSPRVSQARAGEGRGAGKHVRSSSMASLRSPSTSIKSGLKRDSKSEDKGLSFFKSALRQKETRRSTDLGKTALLSKKAGGSSVKSVCKNTGDDEAERGHQPPASQQPNANTTGKEQLVTKDPASAKHSLLSARKSKSSQLDSGVPSSPGGRQSAEKSSKKLSSSMQTSARPSQKPQ
For the molecule B1, the binding entry is given as “binds”.
